Experimental data: PubChem BioAssay AID504793 (Drosophila RNAi Screening Center, 2011)
The screen tested about 23,000 reagents; this is an unselected part of those that have a named target and a result. In the full data, 62 (0.27%) were called active. 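Calls come from follow-up tests whose scores are not deposited, so confirmed genes may have low counts here; counts are not normalised per plate.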 The raw values are shown without normalisation. Entries without a mark were called inactive.

Purpose: 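Whole-genome screen for parts of the DNA damage checkpoint at G2/M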 (primary screen)
System: Drosophila S2R+ cells
Knock-down reagent: long dsRNA against Drosophila genes, about 0.25 µg dsRNA per well
Timing: 4 days of dsRNA, then 4 hours of drug before read-out
Conditions: doxorubicin 0.5 µM for 4 hours to cause double-strand breaks, in cells also given a low, harmless dose of dsRNA against nbs to sensitise the assay
Measurement: 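Mitotic index as the number of phospho-histone H3-positive cells in each well following doxorubicin, given as raw counts without normalisation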
Reading the numbers: mitotic cells: higher = more cells in mitosis, weaker G2 arrest
Active means: 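Genes are called active only when high mitotic counts were reproduced with independent dsRNAs and mitosis was checked for delay without damage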
Calls: active = confirmed in follow-up tests; inactive = not confirmed

Ca-alpha1D (Ca[2+]-channel protein alpha[[1]] subunit D) [DRSC03284]
- mitotic cells, replicate 1: 3

TM9SF3 (Transmembrane 9 superfamily protein member 3) [DRSC09747]
- mitotic cells, replicate 1: 8

Pink1 (PTEN-induced putative kinase 1) [DRSC18361]
- mitotic cells, replicate 1: 9

CG1441 [DRSC06448]
- mitotic cells, replicate 1: 7

CG1441 [DRSC27028]
- mitotic cells, replicate 1: 4

Ir75c (Ionotropic receptor 75c) [DRSC10190]
- mitotic cells, replicate 1: 4

CG8944 [DRSC20128]
- mitotic cells, replicate 1: 6

CG8944 [DRSC21342]
- mitotic cells, replicate 1: 20

CG8944 [DRSC23741]
- mitotic cells, replicate 1: 8

Quoted from above for reference:
Ca-alpha1D (Ca[2+]-channel protein alpha[[1]] subunit D) [DRSC03284]
- mitotic cells, replicate 1: 3

TM9SF3 (Transmembrane 9 superfamily protein member 3) [DRSC09747]
- mitotic cells, replicate 1: 8

The listing continues:
CG6511 [DRSC10656]
- mitotic cells, replicate 1: 3

CG9114 [DRSC20155]
- mitotic cells, replicate 1: 13

nahoda [DRSC03954]
- mitotic cells, replicate 1: 4

nahoda [DRSC04126]
- mitotic cells, replicate 1: 8

ens (ensconsin) [DRSC08454]
- mitotic cells, replicate 1: 4

ens (ensconsin) [DRSC25507]
- mitotic cells, replicate 1: 5
